From PubChem BioAssay AID248 (DTP/NCI, 2004)
The list does not hold the whole screen: it gathers tests that were run many times, whatever their T/C, doses with no T/C, and many T/C values between a quarter and a half above the control. Other doses and runs of a compound stand elsewhere. T/C: endpoint of the treated group in % of that of the vehicle group. Some doses have a count of surviving animals in place of a T/C: the source files T/C as zero there, which appears to mark a toxic dose or a test without result, not a measured value. Some doses without a T/C left all or most animals alive at the check, yet need not have been tolerated: survival well below the control is almost never listed, so the zero probably covers shortened survival too. Survivors were counted at the toxicity check, usually on the fifth day, unless a day is given; later deaths do not show. Schedule codes are those of the source, read here as Q, the interval in days (D) or hours (H), X, the number of doses. Some schedule codes hold Z or #, which are not explained here. Some doses were run more than once; the results are listed from low to high. Some structures stand for samples that the source files as different forms (salt, stereo form or complex); doses refer to the form tested. Brackets with × give the number of equal values in this list. For survival time, this PubChem deposit counts one and a half times the control or more as active, and values a quarter to a half above the control carry no call in these data; other NCI protocols may use other cut-offs.

Test system: L1210 leukemia ip in BDF1 mice, survival T/C
Assay: NCI In Vivo Anticancer Drug Screen. Data for tumor model L1210 Leukemia (intraperitoneal) in B6D2F1 (BDF1) mice
Settings: T/C endpoint: mean survival time, higher T/C = longer survival
[1] = dose: 200.0 mg/kg/injection, schedule: Q01DX009 (ip), vehicle: saline
[2] = dose: 200.0 mg/kg/injection, schedule: Q04DX003 (ip), vehicle: saline
[3] = dose: 400.0 mg/kg/injection, schedule: Q01DX009 (ip), vehicle: saline
[4] = dose: 400.0 mg/kg/injection, schedule: Q04DX003 (ip), vehicle: saline
[5] = dose: 66.0 mg/kg/injection, schedule: Q01DX001 (ip), vehicle: saline
[6] = dose: 400.0 mg/kg/injection, schedule: Q01DX009 (ip), vehicle: Klucel (hydroxypropylcellulose) (HPC)
[7] = dose: 400.0 mg/kg/injection, schedule: Q04DX003 (ip), vehicle: Klucel (hydroxypropylcellulose) (HPC)
[8] = dose: 100.0 mg/kg/injection, schedule: Q04DX003 (ip), vehicle: saline with Tween-80
[9] = dose: 200.0 mg/kg/injection, schedule: Q04DX003 (ip), vehicle: saline with Tween-80
[10] = dose: 400.0 mg/kg/injection, schedule: Q04DX003 (ip), vehicle: saline with Tween-80
[11] = dose: 100.0 mg/kg/injection, schedule: Q01DX001 (ip), vehicle: saline
[12] = dose: 400.0 mg/kg/injection, schedule: Q01DX001 (ip), vehicle: saline
[13] = dose: 100.0 mg/kg/injection, schedule: Q04DX003 (ip), vehicle: Klucel (hydroxypropylcellulose) (HPC)
[14] = dose: 200.0 mg/kg/injection, schedule: Q04DX003 (ip), vehicle: Klucel (hydroxypropylcellulose) (HPC)
[15] = dose: 200.0 mg/kg/injection, schedule: Q01DX009 (ip), vehicle: Klucel (hydroxypropylcellulose) (HPC)

NC(N)=N/N=C(/c1ccccc1)c1ccccc1F
survivor count (dose: 960.0 mg/kg/injection, schedule: Q01DX Z (oral), vehicle: saline): 6 of 6

CC(C(=O)N1c2ccccc2Sc2ccccc21)[N+]1(C)CCCC1 (stereo not given)
survivor count (dose: 100.0 mg/kg/injection, schedule: Q01DX009 (ip), vehicle: saline): 0 of 6
survivor count (dose: 100.0 mg/kg/injection, schedule: Q04DX003 (ip), vehicle: saline): 0 of 4
survivor count [1]: 0 of 6
survivor count [2]: 0 of 4
survivor count [3]: 0 of 6
survivor count [4]: 0 of 4

CCCCOP(=O)(N1CC1C)N1CC1C (stereo not given)
T/C [5]: 143 % of control
survivor count (dose: 110.0 mg/kg/injection, schedule: Q04DX003 (ip), vehicle: acetone): 5 of 6
T/C (dose: 170.0 mg/kg/injection, schedule: Q04DX003 (ip), vehicle: acetone): 142 % of control
survivor count (dose: 255.0 mg/kg/injection, schedule: Q04DX003 (ip), vehicle: acetone): 6 of 6

NNC(=O)Cc1nc2ccccc2[nH]c1=O
survivor count [6]: 6 of 6

Nc1ccc2c(c1)-n1cccc1C2=O
survivor count [7]: 1 of 3

COc1ccccc1C1CCCCCCC1OS(=O)(=O)c1ccc(C)cc1 (stereo not given)
survivor count (dose: 150.0 mg/kg/injection, schedule: Q01DX001 (ip), vehicle: acetone): 6 of 6
survivor count (dose: 300.0 mg/kg/injection, schedule: Q04DX003 (ip), vehicle: saline): 6 of 6

N#CC1(C#N)C2C=CC(C3C(Cl)C=CC32)C1(C#N)C#N (stereo not given)
survivor count (dose: 50.0 mg/kg/injection, schedule: Q01DX009 (ip), vehicle: saline with Tween-80): 3 of 6
survivor count [8]: 6 of 6
survivor count [9]: 0 of 6
survivor count [10]: 0 of 6

CCOc1ccc2nc(C)cc(C)c2c1
survivor count (dose: 400.0 mg/kg/injection, schedule: Q04DX002 (ip), vehicle: Klucel (hydroxypropylcellulose) (HPC)): 3 of 3

Cc1ccc(Nc2nc(N)nc(N)c2N=O)cc1C
survivor count (dose: 100.0 mg/kg/injection, schedule: Q01DX001 (ip), vehicle: Klucel (hydroxypropylcellulose) (HPC)): 0 of 3
survivor count (dose: 400.0 mg/kg/injection, schedule: Q01DX001 (ip), vehicle: Klucel (hydroxypropylcellulose) (HPC)): 3 of 3

CCCOP(=S)(N1CC1)N1CC1
survivor count (dose: 5.0 mg/kg/injection, schedule: Q01DX015 (ip), vehicle: saline): 0 of 6
survivor count (dose: 10.0 mg/kg/injection, schedule: Q01DX015 (ip), vehicle: saline): 0 of 6
survivor count (dose: 20.0 mg/kg/injection, schedule: Q01DX015 (ip), vehicle: saline): 0 of 6
survivor count (dose: 35.0 mg/kg/injection, schedule: Q01DX015 (ip), vehicle: saline): 0 of 6
survivor count (dose: 50.0 mg/kg/injection, schedule: Q01DX001 (ip), vehicle: saline): 3 of 4
T/C [5]: 132 % of control
T/C [11]: 140 % of control
survivor count [11]: 1 of 4
survivor count (dose: 150.0 mg/kg/injection, schedule: Q01DX001 (ip), vehicle: saline): 1 of 4
survivor count (dose: 200.0 mg/kg/injection, schedule: Q01DX001 (ip), vehicle: saline): 2 of 4
survivor count [12]: 2 of 4

CCOC(=O)c1ccc(N=NC2C(=O)N(c3ccccc3)N=C2C)cc1 (stereo not given)
survivor count [12]: 0 of 4

O=C(NO)c1cc(Br)cc(Br)c1O
survivor count (dose: 200.0 mg/kg/injection, schedule: Q01DX009 (ip), vehicle: saline with Tween-80): 3 of 6
survivor count (dose: 400.0 mg/kg/injection, schedule: Q01DX009 (ip), vehicle: saline with Tween-80): 0 of 6

CCCCSP(=O)(Cc1ccccc1)SCCCC
survivor count [13]: 0 of 6
survivor count [14]: 0 of 6
survivor count [7]: 0 of 6

CCN(CC)CCCC(C)Nc1c2ccc(Cl)cc2nc2ccc(OC)cc12 (stereo not given)
survivor count (dose: 100.0 mg/kg/injection, schedule: Q01DX Z (ip), vehicle: water): 4 of 8
survivor count (dose: 200.0 mg/kg/injection, schedule: Q01DX015 (ip), vehicle: carboxymethylcellulose (CMC)): 5 of 6
survivor count (dose: 400.0 mg/kg/injection, schedule: Q01DX001 (ip), vehicle: carboxymethylcellulose (CMC)): 0 of 4
survivor count (dose: 400.0 mg/kg/injection, schedule: Q01DX015 (ip), vehicle: carboxymethylcellulose (CMC)): 0 of 6

CCCSCCSCCC
survivor count [9]: 6 of 6
survivor count [10]: 6 of 6

CCCCCCCN=C(N)CSSCC(N)=NCCCCCCC
survivor count (dose: 12.5 mg/kg/injection, schedule: Q04DX002 (ip), vehicle: saline with Tween-80): 0 of 3
survivor count (dose: 25.0 mg/kg/injection, schedule: Q04DX002 (ip), vehicle: saline with Tween-80): 0 of 3
survivor count (dose: 100.0 mg/kg/injection, schedule: Q04DX002 (ip), vehicle: saline with Tween-80): 0 of 3
survivor count (dose: 200.0 mg/kg/injection, schedule: Q04DX002 (ip), vehicle: saline with Tween-80): 0 of 3
survivor count (dose: 400.0 mg/kg/injection, schedule: Q04DX002 (ip), vehicle: saline with Tween-80): 0 of 3

CCOC(=O)CC1(C)NC(C(=O)O)C(C)(C)S1 (stereo not given)
survivor count [15]: 3 of 3

O=C(O)CNCC(=O)O
survivor count [1]: 6 of 6
survivor count [3]: 6 of 6

CCCCCCCCCCCCCCCCCCNC(=O)Nc1cc(C(C)C)ccc1C
survivor count (dose: 200.0 mg/kg/injection, schedule: Q01DX009 (ip), vehicle: other): 6 of 6

CC[n+]1ccc(Nc2ccc(/C=C/c3ccc4cc(Nc5cc[n+](CC)cc5)ccc4[n+]3CC)cc2)cc1
T/C (dose: 5.0 mg/kg/injection, schedule: Q01DX009 (ip), vehicle: saline): 127 and 147 % of control
T/C (dose: 10.0 mg/kg/injection, schedule: Q01DX009 (ip), vehicle: saline): 144 % of control
survivor count (dose: 20.0 mg/kg/injection, schedule: Q01DX009 (ip), vehicle: saline): 0 of 6 and 1 of 6

N#CC(C#N)=CN1CCCCCC1
survivor count [8]: 0 of 6
survivor count [9]: 0 of 6
survivor count [10]: 0 of 6

CNS(=O)(=O)c1c(C)cccc1CC(=O)c1ccccc1
survivor count (dose: 200.0 mg/kg/injection, schedule: Q01DX001 (ip), vehicle: steroid suspending solution): 6 of 6

Cc1n(Cc2ccc(Cl)cc2Cl)cc[n+]1Cc1ccccc1
survivor count [13]: 1 of 6
survivor count [14]: 0 of 6
survivor count [7]: 0 of 6

O=C(CCl)Nc1ccc(O)c2ccccc12
survivor count (dose: 300.0 mg/kg/injection, schedule: Q01DX001 (ip), vehicle: other): 0 of 6

NCCc1ccc(S(=O)(=O)O)cc1[N+](=O)[O-]
survivor count [6]: 6 of 6

CCN1C(C)C1C(C)C (stereo not given)
survivor count [14]: 1 of 6
survivor count [7]: 0 of 6

O=[N+]([O-])c1cc(S(=O)(=O)Oc2ccccc2)ccc1Cl
survivor count (dose: 100.0 mg/kg/injection, schedule: Q01DX009 (ip), vehicle: Klucel (hydroxypropylcellulose) (HPC)): 1 of 6
survivor count [15]: 0 of 6
survivor count [6]: 0 of 6

O=[N+]([O-])c1cc(S(=O)(=O)F)cc(Cl)c1S
survivor count [7]: 0 of 6

O=c1[nH]cc(COCC(F)(F)F)c(=O)[nH]1
survivor count (dose: 400.0 mg/kg/injection, schedule: Q01DX005 (ip), vehicle: other): 0 of 4

CCO/C([O-])=C/[P+](c1ccccc1)(c1ccccc1)c1ccccc1
survivor count [13]: 3 of 6
survivor count [14]: 0 of 6
survivor count [7]: 0 of 6

Cc1cc[n+](CCc2ccccc2)cc1
survivor count [2]: 2 of 6 (2×)
survivor count (dose: 300.0 mg/kg/injection, schedule: Q01DX001 (ip), vehicle: carboxymethylcellulose (CMC)): 1 of 6
survivor count [4]: 0 of 6 (2×)

CCCCCCCCOC(=O)c1[nH]cnc1N
survivor count [12]: 0 of 4
